# Assay results taken from the supplement of paper PMC10373366.
# Where a name gives a salt, the structure may show the parent alone. This is one part of the list. Many values rest on one well or one pass, so single values are uncertain.
# Test system: patient-derived ovarian cancer cells (PDC)
# Assay: cell growth inhibition ratio vs untreated control (CCK8); higher = stronger inhibition of cell viability
# Settings: 10 µM; 48 h
# Procedure: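 Natural product library (Topscience) screened at 10 µM final concentration for 48 h on ovarian cancer A2780 cells and patient-derived ovarian cancer cells (PDC) in 96-well plates; viability read by CCK8 and reported as inhibition ratio (%) relative to untreated control. Single-dose primary screen.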
row,SMILES,cell growth inhibition ratio [%]
1,NCCc1c[nH]c2ccccc12 [Tryptamine],-9.85
2,CCN1C[C@]2(OC(=O)c3ccccc3NC(C)=O)CC[C@H](OC)[C@@]34[C@@H]2C[C@@H]([C@@H]13)[C@@]1(O)C[C@H](OC)[C@H]2C[C@@H]4[C@]1(O)[C@H]2OC [Lappaconitine],-21.7
3,CC[C@]12C=CCN3CC[C@]4(C(=C(C(=O)OC)C1)Nc1ccccc14)[C@@H]32 [Tabersonine],9.29
4,O=C1C[C@@H]2OCC=C3CN4CC[C@]56c7ccccc7N1[C@H]5[C@H]2[C@H]3C[C@H]46 [Strychnine],-13.3
5,CN1[C@@H]2C[C@@H](OC(=O)[C@H](CO)c3ccccc3)C[C@H]1[C@@H]1O[C@@H]12 [Scopolamine HBr trihydrate],5.68
6,CCCCCc1cc(O)cc(O)c1 [Olivetol],-12.7
7,CNCC(O)c1ccc(O)cc1 (centres undefined) [Synephrine],11.4
8,C[C@]12CC[C@H]3[C@@H](CCC4=CC(=O)CC[C@@]43C)[C@@H]1CC[C@@H]2O [Testosterone],18.6
9,CCC(=O)O[C@H]1CC[C@H]2[C@@H]3CCC4=CC(=O)CC[C@]4(C)[C@H]3CC[C@]12C [Testosterone propionate],8.74
10,CC1C=CC=CCCC=CC=CC=CC=CC(OC2OC(C)C(O)C(N)C2O)CC2OC(O)(CC(O)C(O)CCC(O)CC(O)CC(O)CC(=O)OC(C)C(C)C1O)CC(O)C2C(=O)O (centres undefined) [Nystatin (Fungicidin)],4.56
11,C/C=C/C#CC#C/C=C/c1ccco1 [Atractylodin],7.82
12,CN1[C@@H]2CC[C@H]1C[C@@H](OC(=O)C(CO)c1ccccc1)C2 (some centres undefined) [Atropine sulfate],-4.13
13,C[C@]12CCC(=O)C=C1CC[C@@H]1[C@@H]2C(=O)C[C@]2(C)C(=O)CC[C@@H]12 [Adrenosterone],12.9
14,COc1cc(C(=O)O)cc(OC)c1OC [Gallic acid trimethyl ether],-6.36
15,Cc1nccc2c1[nH]c1ccccc12 [Harmane],10.9
16,CC(C)c1ccc2c(c1O)CC[C@H]1C3=C(CC[C@]21C)C(=O)OC3 [Triptophenolide],10.1
17,CCN1C[C@]2(COC)[C@H](O)C[C@H](OC)[C@@]34[C@@H]5C[C@@]6(O)[C@H](OC(=O)c7ccccc7)[C@@H]5[C@@](OC(C)=O)([C@@H]([C@H](OC)[C@H]23)[C@@H]14)[C@@H](O)[C@@H]6OC [Aconitine],6.21

# Reformatted bar-delimited: part of the list above.
row | SMILES | cell growth inhibition ratio [%]
4 | O=C1C[C@@H]2OCC=C3CN4CC[C@]56c7ccccc7N1[C@H]5[C@H]2[C@H]3C[C@H]46 [Strychnine] | -13.3
5 | CN1[C@@H]2C[C@@H](OC(=O)[C@H](CO)c3ccccc3)C[C@H]1[C@@H]1O[C@@H]12 [Scopolamine HBr trihydrate] | 5.68

# The listing continues.

row,SMILES,cell growth inhibition ratio [%]
1,CN1[C@@H]2CC[C@H]1C[C@@H](OC(=O)C(CO)c1ccccc1)C2 (some centres undefined) [Atropine],4.22
2,CC(=O)O[C@H]1C(=O)[C@@]2(C)[C@H]([C@H](OC(=O)c3ccccc3)[C@]3(O)C[C@H](O)C(C)=C1C3(C)C)[C@]1(OC(C)=O)CO[C@@H]1C[C@@H]2O [Baccatin III],13.1
3,CCC1=CC2CN3CCc4c([nH]c5ccccc45)C(C(=O)OC)(C2)C13 (centres undefined) [Catharanthine sulfate],24.9
4,Cc1cc2c(C(C)C)c(O)c(O)c(C=O)c2c(O)c1-c1c(C)cc2c(C(C)C)c(O)c(O)c(C=O)c2c1O [Gossypol],-23.2
5,COc1cc(O)cc(/C=C/c2ccc(O)cc2)c1 [Pinostilbene],13.6
6,CN1[C@@H]2C[C@@H](OC(=O)[C@H](CO)c3ccccc3)C[C@H]1[C@@H]1O[C@@H]12 [Scopolamine HBr],-17.2
7,CC1C(=O)OC2C(O)C34C5OC(=O)C3(OC3OC(=O)C(O)C34C(C(C)(C)C)C5O)C12O (centres undefined) [Ginkgolide C],5.69
8,Cc1cc2c(C(C)C)c(O)c(O)c(C=O)c2c(O)c1-c1c(C)cc2c(C(C)C)c(O)c(O)c(C=O)c2c1O [Gossypol acetic acid],71.5
9,O=C1C=CC[C@@H]2[C@H]3CCC[N+]4([O-])CCC[C@@H](CN12)[C@@H]34 (some centres undefined) [Oxysophocarpine],-7.96
10,Cc1c2ccncc2c(C)c2c1[nH]c1ccccc12 [Ellipticine],53.8
11,C[C@H]1CCC/C=C/[C@@H]2C[C@H](O)C[C@H]2[C@H](O)/C=C/C(=O)O1 [Brefeldin A],85.6
12,COc1cc([C@@H]2c3cc4c(cc3[C@H](O)[C@H]3COC(=O)[C@@H]23)OCO4)cc(OC)c1OC [Picropodophyllin (PPP)],50.7
13,CC1=C2C(=O)[C@H]3[C@@H](CC=C4C[C@@H](O)CC[C@@]43C)[C@@H]2CC[C@]12O[C@@H]1C[C@H](C)CN[C@H]1[C@H]2C [Jervine],-4.83
14,C[C@H]1C(=O)O[C@@H]2CCN3CC=C(COC(=O)[C@](C)(O)[C@]1(C)O)[C@H]23 [Monocrotaline],-14.3
15,CN(C)[C@@H]1C(=O)C(C(N)=O)=C(O)[C@@]2(O)C(=O)C3=C(O)c4c(O)cccc4[C@@](C)(O)[C@H]3C[C@@H]12 [Tetracycline hydrochloride],-10.3
16,CNC1CC(N)C(O)C(OC2OC(CO)C(O)C3OC4(OC(C(N)CO)C(O)C(O)C4O)OC23)C1O (centres undefined) [Hygromycin B],19
17,CCC1=C[C@@H]2CN3CCc4c([nH]c5ccccc45)[C@@](C(=O)OC)(C2)[C@@H]13 [Catharanthine tartrate],-0.0387
